43 molecules from the supplement of paper PMC8104966 can be followed below.

SMILES strings stand for the structures. This is one part of the list. This data set is noisy: repeats of one test often differ as much as different tests do.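 U2OS cells carrying ACE2 were mixed with U2OS cells carrying full-length spike, and fusion was scored by imaging as the share of nuclei showing both cell types' fluorescent markers. A compound counts as an inhibitory hit when it is non-toxic and its fusion z-score falls below -3, meaning more than three standard deviations below the plate's DMSO wells.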

The assay has as its system U2OS ACE2 x SARS-CoV-2 spike co-culture. The assay is described as follows: cell-cell fusion (fraction fused) z-score vs plate DMSO control; higher = more fusion. The note with it: 30 µM; 5 h; toxicity class: non-toxic, passed QC.
In the case of `C#C[C@@H]1CC2C3CCC4=C[C@@H](OC(C)=O)CCC4C3CC[C@]2(C)[C@H]1OC(C)=O` (stereo partly drawn), the “cell-cell fusion (z-score)” value is inactive: 2.31.
For the molecule `CCCCCN(C)CCC(O)(P(=O)([O-])O)P(=O)(O)O.[Na+]` [Ibandronate sodium], the “cell-cell fusion (z-score)” value was inactive: 1.46.
On to `N[C@H](Cc1cc(I)c(Oc2ccc(O)c(I)c2)c(I)c1)C(=O)O`, for which the “cell-cell fusion (z-score)” value was inactive: 3.95.
Regarding `Cl.O=C(CCCN1CCC(O)(c2cccc(C(F)(F)F)c2)CC1)c1ccc(F)cc1` [Trifluperidol hydrochloride], the “cell-cell fusion (z-score)” value was inactive: -2.
In the case of `O=c1[nH]c(=O)n(C2CCCO2)cc1F` (stereo not drawn) [Tegafur] it was inactive: -0.357; in that of `Cl.OCc1c[nH]cn1` [4-Imidazolemethanol hydrochloride], inactive: 1.58; in that of `CC(C)(Sc1cc(C(C)(C)C)c(O)c(C(C)(C)C)c1)Sc1cc(C(C)(C)C)c(O)c(C(C)(C)C)c1` [Probucol], inactive: 4.19.
As for `NCc1ccccc1CC(=O)NC1C(=O)N2C(C(=O)O)=C(CSc3nnnn3CC(=O)O)CSC12` (stereo not drawn), the “cell-cell fusion (z-score)” value was inactive: 0.899.
Turning to `CC(C(=O)O)c1ccc(C(=O)c2cccs2)cc1` (stereo not drawn), the “cell-cell fusion (z-score)” value was inactive: 1.63.
With `Cc1ccc(Cl)c(Nc2ccccc2C(=O)[O-])c1Cl.[Na+]` [Meclofenamic acid sodium], the “cell-cell fusion (z-score)” value is inactive: 1.47.
On to `N.N.O=C1[O][Pt][O]C(=O)C12CCC2` [Carboplatin], for which the “cell-cell fusion (z-score)” value is inactive: 2.14.
`O=C(NOCC1CC1)c1cc(Br)c(F)c(F)c1Nc1ccc(I)cc1Cl`: the “cell-cell fusion (z-score)” value was inactive: 2.97.
With `CC(C)c1c(O)ccc2c1CCC1C(C)(C)CCC[C@]21C` (stereo partly drawn), the “cell-cell fusion (z-score)” value is inactive: 3.01.
Regarding `CC(C)(C)c1ccc(C(=O)CCCN2CCC(OC(c3ccccc3)c3ccccc3)CC2)cc1` [Ebastine], the “cell-cell fusion (z-score)” value was inactive: 2.16.
For the molecule `CC(C)c1ccc2c(c1)CCC1[C@](C)(CN)CCC[C@]21C.O=S(=O)(O)O` (stereo partly drawn), the “cell-cell fusion (z-score)” value is inactive: 0.966.
Turning to `CC(=O)OC/C=C(C)/C=C/C=C(C)/C=C/C1=C(C)CCCC1(C)C`, the “cell-cell fusion (z-score)” value is inactive: 3.16.
`C=C[C@](C)(O)CC[C@@H]1[C@@]2(C)CCCC(C)(C)[C@@H]2CC[C@]1(C)O`: the “cell-cell fusion (z-score)” value was inactive: 0.739.
In the case of `CN(C)[C@@H]1C(O)=C(C(N)=O)C(=O)[C@@]2(O)C(O)=C3C(=O)c4c(O)ccc(Cl)c4[C@@H](O)[C@H]3C[C@@H]12.Cl` [Demeclocycline hydrochloride] it was inactive: 0.518; in that of `CCC(/C=C/[C@@H](C)[C@H]1CCC2C3CC=C4C[C@@H](O)CC[C@]4(C)C3CC[C@@]21C)C(C)C` (stereo partly drawn), inactive: 2.68.
Regarding `O=c1ccc2ccc(OCCCCN3CCN(c4cccc5sccc45)CC3)cc2[nH]1` [Brexpiprazole], the “cell-cell fusion (z-score)” value is inactive: -0.968.
Regarding `C=C(C)[C@H]1CN[C@H](C(=O)O)[C@H]1CC(=O)O` [Kainic acid], the “cell-cell fusion (z-score)” value was inactive: 2.34.
Under `O=P([O-])(O)C(Cl)(Cl)P(=O)([O-])O.[Na+].[Na+]` [Clodronic acid] stands inactive: 1.55; under `C[C@H]1c2cccc(O)c2C(=O)C2=C(O)[C@]3(O)C(=O)C(C(N)=O)=C(O)[C@@H](N(C)C)[C@@H]3[C@@H](O)[C@@H]21.Cl` [Doxycycline hydrochloride], inactive: 1.45.
In the case of `C[N+]1(C)C2CCC1CC(OC(=O)C(CO)c1ccccc1)C2.O=[N+]([O-])[O-]` (stereo not drawn) [Atropine methyl nitrate] it was inactive: 2.24; in that of `C[N+]1(C)C2CCC1CC(OC(=O)C(CO)c1ccccc1)C2.O=[N+]([O-])[O-]` (stereo not drawn), inactive: 2.37.
Turning to `COc1ccc(CNc2nc(N3CCC[C@H]3CO)ncc2C(=O)NCc2ncccn2)cc1Cl` [Avanafil], the “cell-cell fusion (z-score)” value is active: -5.48.
With `CC/C(=C(\c1ccccc1)c1ccc(OCCN(C)C)cc1)c1ccccc1.O=C(O)CC(O)(CC(=O)O)C(=O)O` [Tamoxifen Citrate (Nolvadex)], the “cell-cell fusion (z-score)” value is inactive: 1.62.
Turning to `O=C(O)c1cc(=O)c2ccccc2o1`, the “cell-cell fusion (z-score)” value was inactive: 1.4.
`CO[C@H]1C[C@@H]2CC[C@@H](C)[C@@](O)(O2)C(=O)C(=O)N2CCCC[C@H]2C(=O)O[C@H]([C@H](C)C[C@@H]2CC[C@@H](O)[C@H](OC)C2)CC(=O)[C@H](C)/C=C(\C)[C@@H](O)[C@@H](OC)C(=O)[C@H](C)C[C@H](C)/C=C/C=C/C=C/1C` [Rapamycin]: the “cell-cell fusion (z-score)” value is active: -6.13.
In the case of `O=C1[N-]C(=O)C(c2ccccc2)(c2ccccc2)N1.[Na+]`, the “cell-cell fusion (z-score)” value is inactive: 0.581.
Regarding `CCN(CC)CCOC(=O)c1ccc(N)cc1Cl.Cl` [Chloroprocaine HCl], the “cell-cell fusion (z-score)” value was inactive: 3.66.
Turning to `OCC(O)[C@@H](O)CO` (stereo partly drawn), the “cell-cell fusion (z-score)” value is inactive: 2.31.
Under `CC(=O)O[C@H]1CC2CCC3C(CC[C@@]4(C)C3C[C@H]([N+]3(C)CCCCC3)[C@@H]4OC(C)=O)[C@@]2(C)C[C@@H]1N1CCCCC1.[Br-]` (stereo partly drawn) stands inactive: 1.15; under `Nc1ccc(S(=O)(=O)Nc2ccc(Cl)nn2)cc1`, inactive: 1.47; under `OCCN1C[C@H](O)[C@@H](O)[C@H](O)[C@H]1CO` [Miglitol], inactive: 2.8.
As for `Cl.c1ccc(CC2=NCCN2)cc1`, the “cell-cell fusion (z-score)” value was inactive: 1.34.
For `CCCN1CCCC[C@H]1C(=O)Nc1c(C)cccc1C.Cl` [Ropivacaine hydrochloride], the “cell-cell fusion (z-score)” value was inactive: 5.2.
With `COc1cc(C(C)=O)ccc1OCCCN1CCC(c2noc3cc(F)ccc23)CC1` [Iloperidone], the “cell-cell fusion (z-score)” value is inactive: 2.73.
With `O=C(O)c1ccc(Nc2ncc3c(n2)-c2ccc(Cl)cc2C(c2c(F)cccc2F)=NC3)cc1`, the “cell-cell fusion (z-score)” value is inactive: 2.16.
For `Nc1nc(OCc2cc(Br)cs2)c2[nH]cnc2n1` [Lomeguatrib], the “cell-cell fusion (z-score)” value was active: -4.32.
As for `COC(=O)Nc1ccc(-c2nc(N3CCOCC3)c3cnn(C4CCN(C(=O)OC)CC4)c3n2)cc1`, the “cell-cell fusion (z-score)” value is inactive: 1.43.
For the molecule `CN(C)CC/C=C1/c2ccccc2Sc2ccc(Cl)cc21.Cl` [Chlorprothixene hydrochloride], the “cell-cell fusion (z-score)” value is inactive: 1.64.
As for `CCCC(CCC)C(=O)O[C@H]1C[C@H]2CC[C@@H](C1)[N+]2(C)C.[Br-]` [Anisotropine Methylbromide], the “cell-cell fusion (z-score)” value was inactive: 1.27.
